Data source: PubChem BioAssay AID493246 (Drosophila RNAi Screening Center, 2011)
The screen tested about 21,000 reagents; shown is an unselected part of those with a known target gene and a result. Over the whole deposit, 429 (2%) got an active call. 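Values are raw and not normalised between plates; calls rest on per-plate z-scores that were not deposited.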 Entries without a mark were called inactive. The numbers tell different reagents against one gene apart. Names joined by + are all predicted targets of the reagent. Reagent sequences are not shown. Not given: the amount of reagent, the time to read-out.

Screen: 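Genome-wide search for dsRNAs that reduce cell number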 (primary screen)
Cell system: Drosophila Kc and S2R+ cells
Reagents: long dsRNA against Drosophila genes
Measured: 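Cell number per well after knock-down, printed as raw plate values; calls were based on per-plate z-scores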
Scale: Kc cell number and S2R+ cell number: higher = more cells remaining
Rule for the call: 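Active when the per-plate z-score of cell number is 3 or more in the direction of fewer cells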

target,reagent,"Kc cell number, rep 1","Kc cell number, rep 2","S2R+ cell number, rep 1","S2R+ cell number, rep 2"
phu (GeneID 41135),1,1.54e6,1.53e6,1.22e6,1.34e6
CG11381 (GeneID 31067),1,1.40e6,1.41e6,8.93e5,9.92e5
CG5639 (GeneID 43314),1,1.49e6,1.60e6,9.93e5,1.19e6
Snr1 (GeneID 40657),1,1.24e6,1.33e6,1.21e6,1.21e6
CG8289 (GeneID 32741),1,1.45e6,1.47e6,1.00e6,1.14e6
CG7071 + Muted,1,1.25e6,1.45e6,1.06e6,1.13e6
CG3287 (retired record) (GeneID 48441),1,1.58e6,1.67e6,1.25e6,1.36e6
TwdlW (GeneID 42075),1,1.38e6,1.41e6,1.09e6,1.19e6
COX7B (GeneID 50266),1,1.28e6,1.38e6,1.08e6,1.28e6
DppIII (GeneID 40996),1,1.68e6,1.82e6,1.42e6,1.62e6
firl (GeneID 34627),1,1.51e6,1.55e6,1.26e6,1.38e6
Art1 (GeneID 41295),1,1.56e6,1.61e6,1.33e6,1.45e6
CG31007 (GeneID 318553),1,1.10e6,1.38e6,1.02e6,1.05e6
slgA (GeneID 33117),1,1.51e6,1.54e6,1.04e6,1.16e6
phol (GeneID 39095),1,1.34e6,1.39e6,1.18e6,1.19e6
Pdp1 (GeneID 45588),1,9.79e5 (active),8.25e5,6.17e5,7.04e5
Pdp1 (GeneID 45588),2,8.14e5 (active),6.76e5,5.68e5,8.56e5
Pdp1 (GeneID 45588),3,1.49e6,1.44e6,1.10e6,1.09e6
CG9812 (GeneID 37709),1,1.49e6,1.62e6,1.20e6,1.34e6
mv (GeneID 38259),1,1.50e6,1.32e6,1.03e6,1.35e6
mv (GeneID 38259),2,1.50e6,1.27e6,9.65e5,1.36e6
CG34026 (GeneID 3885569),1,1.29e6,1.46e6,1.07e6,1.08e6
CG8854 (GeneID 36324),1,1.33e6,1.35e6,1.14e6,1.16e6
CG13193 (GeneID 36256),1,1.67e6,1.65e6,1.24e6,1.44e6

Called active, among the entries above:
target,reagent,"Kc cell number, rep 1","Kc cell number, rep 2","S2R+ cell number, rep 1","S2R+ cell number, rep 2"
Pdp1 (GeneID 45588),1,9.79e5 (active),8.25e5,6.17e5,7.04e5
Pdp1 (GeneID 45588),2,8.14e5 (active),6.76e5,5.68e5,8.56e5
